# Measurements taken from patent US9856294B2 (Commissariat A L'Energie Atomique Et Aux Energies …, priority 2010, dated 2018).
# * marks the point of attachment. Trt = c1ccc(C(c2ccccc2)(c2ccccc2)*)cc1; Boc = CC(C)(C)OC(=O)*; OtBu = CC(C)(C)O*
# Assay: general procedure: Fmoc solid-phase peptide synthesis; 2-chlorotrityl chloride resin (substitution 0.4 mmol/g); PyBOP/DIEA
# Conditions: for isolated mass / final HPLC purity / isolated yield: whole synthesis; for final HPLC purity: HPLC analysis; for final HPLC purity / isolated yield: scale of the general procedure 0.202 mmol
Substance,isolated mass [mg],final HPLC purity [%],isolated yield [% yield],conjugation yield (conjugation step) [% yield]
H-W(Boc)C(Trt)E(OtBu)PGE(OtBu)C(Trt)D(OtBu)PG-OH,144,98,53,–
HArg(Pbf)-Cys(Trt)-Ser(tBu)-Pro-Gly-Ser(tBu)Cys(Trt)-Trp(Boc)Pro-Gly-OH,52,96,19,–
P^3-TRITC,–,–,–,8
